In US20190077844A1:
No constants are given. Whether binding was seen depends on the method and setting. Some results given as binding are weak or reduced against the parent protein; the word gives no strength. Values belong to the binder of their own block, whether it stands above or below them.

By UniProt entry, the sequences of proteins in these tests, tags left out. Where a name states a change or a piece, a line headed by the entry shows the natural chain unless it says otherwise.
UniProt P51654: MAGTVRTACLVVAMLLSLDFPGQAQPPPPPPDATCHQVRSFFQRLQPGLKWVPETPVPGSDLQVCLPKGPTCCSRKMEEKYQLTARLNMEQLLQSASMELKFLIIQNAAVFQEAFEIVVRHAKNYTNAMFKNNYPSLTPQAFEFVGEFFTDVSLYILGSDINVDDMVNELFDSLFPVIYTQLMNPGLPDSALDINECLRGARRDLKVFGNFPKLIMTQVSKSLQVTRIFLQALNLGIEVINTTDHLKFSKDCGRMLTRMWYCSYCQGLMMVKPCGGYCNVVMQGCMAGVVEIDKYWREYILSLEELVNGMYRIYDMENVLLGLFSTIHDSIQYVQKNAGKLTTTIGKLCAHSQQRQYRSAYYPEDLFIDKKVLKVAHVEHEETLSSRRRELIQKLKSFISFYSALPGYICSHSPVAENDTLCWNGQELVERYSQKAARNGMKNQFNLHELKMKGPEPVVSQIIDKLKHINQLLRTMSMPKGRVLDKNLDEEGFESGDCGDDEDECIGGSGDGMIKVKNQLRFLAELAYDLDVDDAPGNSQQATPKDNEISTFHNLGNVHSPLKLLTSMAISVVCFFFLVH

Assays:
[1] = target: Recombinant human glypican-3 (aa 1-559), His-tagged (R&D Systems) (human) (UniProt P51654); assay: SPR (Biacore T100)
[2] = target: Human glypican-3 protein, construct not stated (recombinant GPC3 of the ELISA, selection target, human glypican-3-biotin) (human) (UniProt P51654); assay: PROfusion (mRNA display) selection under high stringency

- binding [1]: binds
B1: 6077_F02.dPEG (designed binder)
chain: MGVSDVPRDLEVVAATPTSLLISWSDDYHAHRYYRITYGETGGNSPVQEFTVPGEHVTATISGLKPGVDYTITVYAVTYDGEKAATDWSISINYRTPCHHHHHH
modifications: dPEG (site and size not stated)

- binding [2]: binds
B3: ADX_6077_F02 (designed binder)
chain: B1 chain

More lines, now with the values behind:

B2: 6077_F02-PEG3.4 (designed binder)
chain: B1 chain
modifications: PEG3.4 (site not stated)
- binding [1]: binds

B4: ADX_6077_F02 DG→SG mutant, alkylated (designed binder)
chain: VSDVPRDLEVVAATPTSLLISWSDDYHAHRYYRITYGETGGNSPVQEFTVPGEHVTATISGLKPGVDYTITVYAVTYSGEKAATDWSISINYRTPC
modifications: C-terminal cysteine alkylated
- binding [1]: binds
